Reference: patent US20100080800A1
These are yes or no findings as the source states them, for the method shown. Some binding calls cover weakened binding; strength is not graded here.

By UniProt entry, the sequences of proteins in these tests, tags left out. Residues count along the entry.
UniProt P05067, residues 672-713: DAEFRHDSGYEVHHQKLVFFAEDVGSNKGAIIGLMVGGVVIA

Tests used:
[1] = biological target: Amyloid Beta (antigen of the Amyloid Beta ELISA) (UniProt P05067); test: Amyloid Beta ELISA, antibody purified from NS0 cells
[2] = biological target: T1, Aβ13-21 peptide with glycine at position 21; test: ELISA, third peptide library, hC2 at 200 ng/ml
T1 sequence (peptide, biotinylated): HHQKLVFFG

[3] = biological target: T2, Aβ14-22 peptide with alanine at position 22; test: ELISA, third peptide library, hC2 at 200 ng/ml
T2 sequence (peptide, biotinylated): HQKLVFFAA

[4] = biological target: T3, Aβ12-20 peptide (peptide 12); test: ELISA on overlapping peptides of Aβ1-42 (legend of FIG. 15A)
T3 sequence (peptide, biotinylated): VHHQKLVFF

[5] = biological target: T4, Aβ13-21 peptide (peptide 13); test: as above
T4 sequence (peptide, biotinylated): HHQKLVFFA

[6] = biological target: T5, Aβ14-22 peptide (peptide 14); test: as above
T5 sequence (peptide, biotinylated): HQKLVFFAE

[7] = biological target: T6, Aβ15-23 peptide (peptide 15); test: as above
T6 sequence (peptide, biotinylated): QKLVFFAED

[8] = biological target: T7, Aβ16-24 peptide (peptide 16); test: as above
T7 sequence (peptide, biotinylated): KLVFFAEDV

[9] = biological target: T8, Aβ12-20 peptide with alanine at position 15; test: ELISA, alanine-substituted Aβ12-20 peptides, hC2 at 200 ng/ml
T8 sequence (peptide, biotinylated): VHHAKLVFF

[10] = biological target: T9, Aβ12-20 peptide with alanine at position 18; test: as above
T9 sequence (peptide, biotinylated): VHHQKLAFF

[11] = biological target: T3, Aβ12-20 peptide (peptide 12); test: ELISA, biotinylated peptides on streptavidin plates, hC2 at 200 ng/ml
[12] = biological target: T4, Aβ13-21 peptide (peptide 13); test: as above
[13] = biological target: T5, Aβ14-22 peptide (peptide 14); test: as above
[14] = biological target: T6, Aβ15-23 peptide (peptide 15); test: as above
[15] = biological target: T7, Aβ16-24 peptide (peptide 16); test: as above
A12 = biological target: T10, A12; test: ELISA, biotinylated peptide on streptavidin plate, antibody at 200 ng/ml, AP anti-human IgG, 405 nm
T10 sequence (peptide, biotinylated (position not given)): AHHQKLVFF

A13 = biological target: T11, A13; test: as above
T11 sequence (peptide, biotinylated (position not given)): VAHQKLVFF

A14 = biological target: T12, A14; test: as above
T12 sequence (peptide, biotinylated (position not given)): VHAQKLVFF

[16] = biological target: T3, Aβ12-20 peptide (peptide 12); test: as above
[17] = biological target: T8, Aβ12-20 peptide with alanine at position 15; test: as above
[18] = biological target: T9, Aβ12-20 peptide with alanine at position 18; test: as above
[19] = biological target: T4, Aβ13-21 peptide (peptide 13); test: as above
[20] = biological target: T1, Aβ13-21 peptide with glycine at position 21; test: as above
[21] = biological target: T5, Aβ14-22 peptide (peptide 14); test: as above
[22] = biological target: T2, Aβ14-22 peptide with alanine at position 22; test: as above
[23] = biological target: T6, Aβ15-23 peptide (peptide 15); test: as above
[24] = biological target: T7, Aβ16-24 peptide (peptide 16); test: as above
[25] = biological target: Amyloid Beta (antigen of the Amyloid Beta ELISA) (UniProt P05067); test: Amyloid Beta ELISA, conditioned medium from transient transfection
[26] = biological target: Amyloid Beta (antigen of the Amyloid Beta ELISA) (UniProt P05067); test: Amyloid Beta ELISA, conditioned medium from transient transfection of HEK293 cells
[27] = biological target: Amyloid Beta (antigen of the Amyloid Beta ELISA) (UniProt P05067); test: Amyloid Beta ELISA, purified antibody
[28] = biological target: amyloid plaques in human brain sections (human) (UniProt P05067); test: immunohistochemistry, human brain paraffin sections pretreated with formic acid; paraffin sections of AD brain pretreated with formic acid

Measured: binding

B1: C2HuVH4/HuVK2 humanized antibody (antibody, human IgG4 S228P, kappa, V domains shown)
VH: EVQLVESGGGLVQPGGSLRLSCAASGFTFSSYGMSWVRQAPGKGLELVASINSNGGSTYYPDSVKGRFTISRDNAKNSLYLQMNSLRAEDTAVYYCASGDYWGQGTTVTVSS
VL: DIVMTQSPLSLPVTPGEPASISCRSSQSLVYSNGDTYLHWYLQKPGQSPQLLIYKVSNRFSGVPDRFSGSGSGTDFTLKISRVEAEDVGVYFCSQSTHVPWTFGQGTKVEIKR
binds: [1]

B2: humanized monoclonal antibody hC2 (antibody, human IgG4 S228P, kappa, V domains shown)
VH: EVQLVESGGGLVQPGGSLRLSCAASGFTFSSYGMSWVRQAPGKGLELVASINSNGGSTYYPDSVKGRFTISRDNAKNSLYLQMNSLRAEDTAVYYCASGDYWGQGTTVTVSS
VL: DIVMTQSPLSLPVTPGEPASISCRSSQSLVYSNGDTYLHWYLQKPGQSPQLLIYKVSNRFSGVPDRFSGSGSGTDFTLKISRVEAEDVGVYYCSQSTHVPWTFGQGTKVEIKR
not listed: [1] | [25] | [26] | [27] | [28]
binds: all other assays above

B3: VK-R antibody (mC2 VK-R with chimeric C2 VH) (antibody, V domains shown)
VH: EVQLVESGGGLVQPGGSLKLSCAASGFTFSSYGMSWVRQTPDKRLELVASINSNGGSTYYPDSVKGRFTISRDNAKNTLYLQMSSLKSEDTAMYYCASGDYWGQGSTLTVSS
VL: DVVMTQTPLSLPVSLGDQASISCRSSQSLVYSNGDTYLHWYLQKPGQSPKLLIYRVSNRFSGVPDRFSGSGSGTDFTLKISRVEAEDLGVYFCSQSTHVPWTFGGGTKLEIK
binds: [25] | [26]

B4: VK-S antibody (mC2 VK-S with chimeric C2 VH) (antibody, V domains shown)
VH: EVQLVESGGGLVQPGGSLKLSCAASGFTFSSYGMSWVRQTPDKRLELVASINSNGGSTYYPDSVKGRFTISRDNAKNTLYLQMSSLKSEDTAMYYCASGDYWGQGSTLTVSS
VL: DVVMTQTPLSLPVSLGDQASISCRSSQSLVYSNGDTYLHWYLQKPGQSPKLLIYKVSSRFSGVPDRFSGSGSGTDFTLKISRVEAEDLGVYFCSQSTHVPWTFGGGTKLEIK
binds: [25] | [26]

B5: C2 ChVH AF/ChVK chimeric antibody (antibody, human IgG4 S228P, kappa, V domains shown)
VH: EVQLVESGGGLVQPGGSLKLSCAASGFTFSSYGMSWVRQTPDKRLELVASINSNGGSTYYPDSVKGRFTISRDNAKNTLYLQMSSLKSEDTAMYYCASGDYWGQGSTLTVSS
VL: DVVMTQTPLSLPVSLGDQASISCRSSQSLVYSNGDTYLHWYLQKPGQSPKLLIYKVSNRFSGVPDRFSGSGSGTDFTLKISRVEAEDLGVYFCSQSTHVPWTFGGGTKLEIKR
binds: [27] | [1] | [25] | [28]

B6: C2 HuVH2/HuVK1 humanized antibody (antibody, human IgG4 S228P, kappa, V domains shown)
VH: EVQLVESGGGLVQPGGSLRLSCAASGFTFSSYGMSWVRQAPGKGLEWVASINSNGGSTYYPDSVKGRFTISRDNAKNSLYLQMNSLRAEDTAVYYCASGDYWGQGTTVTVSS
VL: DIVMTQSPLSLPVTPGEPASISCRSSQSLVYSNGDTYLHWYLQKPGQSPQLLIYKVSNRFSGVPDRFSGSGSGTDFTLKISRVEAEDVGVYYCSQSTHVPWTFGQGTKVEIKR
binds: [1]

B7: C2 HuVH2/HuVK4 humanized antibody (antibody, human IgG4 S228P, kappa, V domains shown)
VH: EVQLVESGGGLVQPGGSLRLSCAASGFTFSSYGMSWVRQAPGKGLEWVASINSNGGSTYYPDSVKGRFTISRDNAKNSLYLQMNSLRAEDTAVYYCASGDYWGQGTTVTVSS
VL: DIVMTQSPLSLPVTPGEPASISCRSSQSLVYSNGDTYLHWYLQKPGQSPKLLIYKVSNRFSGVPDRFSGSGSGTDFTLKISRVEAEDVGVYFCSQSTHVPWTFGQGTKVEIKR
binds: [1]
